Reference: US20040220249A1, “Prevention of surgical adhesions using selective COX-2 inhibitors” (Children's Medical Center Corporation, priority 2003, published 2004)
Entries after “also recorded” stand apart in the source; their conditions may differ. For at least one compound, name, drawing or mass did not settle the structure.

How the values were obtained:
[1] = tested on: endothelium (CD31/PECAM-1) of granulation tissue; experiment: Microvessel density of granulation tissue surrounding the silicone patch (CD31 immunostaining, image analysis); format: in vivo, mice (C57BL/6); conditions: FIG. 3; representative mice
Experimental: Silicone patches and abdominal wall were fixed at 4 degrees Celsius in 10% formalin overnight and washed with phosphate buffered saline. The specimens were then embedded in paraffin and 5 micron sections were cut. Endothelial cells were identified by antibody staining against the endothelial cell surface antigen CD31 (PECAM-1) and a diaminobenzidine chromogen (BD Biosciences Pharmingen, San Diego, Calif.). After deparaffinization and rehydration, sections were incubated with proteinase K (Roche, Basel, Switzerland) for 30 min at 37° C. Non-specific binding sites were blocked for 30 min at room temperature with TNB blocking buffer (NEN Life Sciences, Boston, Mass.). Primary CD31 antiserum (Pharmingen) was added to the sections overnight at 4° C. […]
Sections were taken from the abdominal wall, patch, and lesions at sacrifice on day 10. To quantitate vessel density, CD31 immunostained sections underwent digital image analysis using a Nikon Eclipse TE300 inverting photomicroscope with an attached Spot RT (Diagnostic Instruments Inc.) video camera linked to a personal computer. […] The proportion of the selected color was calculated as a percentage of total area and used as a measure of vessel density. Sections from 3 different mice for each of the study groups were examined and vascularization was scanned and quantified in 5 representative fields per section.

[2] = tested on: intra-abdominal adhesion formation; experiment: Intra-abdominal adhesion model (laparotomy, cecal abrasion, silicone patch), adhesion score; format: in vivo, mice (C57BL/6); conditions: 10 days after laparotomy, cecal abrasions and silicone patch placement; FIG. 1
Experimental: Seven to eight week-old male C57BL/6 mice (Jackson Laboratories, Bar Harbor, Me.) were housed five animals to a cage in a barrier room. Mice were acclimated to their environment for at least 72 hours prior to the initiation of each experiment and allowed food and water ad libitum. Animal protocols complied with the NIH Animal Research Advisory Committee guidelines and were approved by the Children's Hospital Institutional Animal Care and Use Committee. A standard adhesion model was performed as previously described (Chiang 2000). Specifically, a 5.0 mm×5.0 mm square piece of sterile silicone (Dow Corning, Midland, Mich.) was secured intra-abdominally to the right abdominal wall, lateral to the epigastric vessels, with two 7-0 proline sutures under isoflurane anesthesia. The cecum then was gently rubbed with two cotton swabs to promote adhesion formation. […]
Ten and 35 days after surgery, mice were euthanized and adhesion formation over the silicone patch was measured by two blinded individuals based on a previously described scoring system (Chiang S, et al. J Ped Surg. 2000, 35, 189-196). […] Type was scored as none (0), filmy (1), mildly dense (2), moderately dense (3), very dense (4). Extent was measured as the percent of the patch covered by adhesion: 0% (0), <25% (1), 25-50% (2), 50-75% (3), >75% (4). […]

`Cc1ccc(-c2cc(C(F)(F)F)nn2-c2ccc(S(N)(=O)=O)cc2)cc1` [celecoxib] was tested, and the “endothelium in CD31-immunostained sections compared to control” value [1] was “clearly less endothelium present; also recorded: clearly less endothelial cells” and the “macroscopic adhesion formation over the silicone patch (photograph)” value [2] was “fewer adhesions compared to both the control and non-selective COX inhibitors-treated groups”.
